PubChem BioAssay AID652243 – Drosophila RNAi Screening Center, 2013

Assay: 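Knock-downs that decrease or increase androgen receptor reporter signal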 (primary screen)
Cell system: Drosophila S2R+ cells
Reagents: long dsRNA against Drosophila genes
Timing: 72 h (48 h, then 24 h hormone)
Challenge: synthetic androgen R1881 at 10 nM for 24 h
Detection: 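Firefly light from an androgen-responsive reporter and Renilla control light per well, raw and unnormalised, for each of two replicates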
Direction: firefly reporter light: higher = more light from androgen-responsive reporter; Renilla control light: higher = more constitutive control signal (cell number, transfection)
Active means: 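Hit when the log firefly-to-Renilla ratio dropped or increased by a fixed fold versus the mean of GFP or LacZ controls across duplicate plates; lowering cut given as 1.5 and as 3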
Calls: active = hit: reporter lowered or raised; inactive = no hit
The screen tested about 24,000 reagents; this is a random part of those with a known target gene and a result. Of all reagents, 246 (1%) were called active. 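Plates not normalised; calls are printed but the firefly/Renilla ratio behind them is not deposited; fold cut for lowering reported inconsistently.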 Raw values vary from plate to plate and are shown uncorrected. Names joined by + are all predicted targets of the reagent. The record does not give: the amount of reagent.

gene,DRSC id,"firefly reporter light, replicate 1","firefly reporter light, replicate 2","Renilla control light, replicate 1","Renilla control light, replicate 2",call
THG (tRNA-histidine guanylyltransferase),DRSC01896,1.61e5,2.18e5,2.75e6,3.08e6,inactive
Josd (Josephin domain containing),DRSC18323,2.03e5,2.41e5,2.58e6,2.61e6,inactive
Ir60e (Ionotropic receptor 60e),DRSC04227,2.01e5,2.08e5,1.39e6,1.02e6,inactive
kon (kon-tiki),DRSC02033,9.34e5,1.66e6,1.53e6,1.98e6,inactive
para (paralytic),DRSC20360,3.65e5,4.65e5,3.09e6,2.63e6,inactive
ABCB7 (ATP binding cassette subfamily B member 7),DRSC08603,43746,62056,8.93e5,9.11e5,inactive
CG14453,DRSC11710,6.93e5,6.98e5,1.84e6,2.27e6,inactive
CG14453,DRSC23780,7.78e5,7.72e5,9.91e5,8.40e5,inactive
CG8230,DRSC05931,1.12e5,1.94e5,8.36e5,1.13e6,inactive
CG5235,DRSC10494,2.10e5,1.81e5,1.66e6,1.51e6,inactive
Drsl6 (Drosomycin-like 6),DRSC08161,2.17e5,1.82e5,2.81e6,2.43e6,inactive
CG5577,DRSC10519,28001,16473,3.66e5,1.87e5,inactive
Papss (PAPS synthetase),DRSC11246,23330,17462,3.38e5,3.12e5,inactive
Papss (PAPS synthetase),DRSC27101,6.56e5,4.73e5,6.85e5,4.84e5,active
Papss (PAPS synthetase),DRSC37030,,,,,inactive
CG17930,DRSC15292,38669,29276,2.02e5,2.49e5,inactive
CG17930,DRSC28230,4.01e5,6.30e5,7.57e5,1.60e6,inactive
Sce (Sex combs extra),DRSC23442,1.43e5,2.01e5,7.26e5,3.87e5,inactive
Abcd1 (ATP binding cassette subfamily D member 1),DRSC17157,1.10e5,57884,6.89e5,4.07e5,inactive
CG34444,DRSC06435,65486,77816,6.45e5,6.45e5,inactive
CG9631,DRSC14137,14341,46263,2.17e5,2.34e5,inactive
CG34458,DRSC06925,97408,1.31e5,2.00e6,2.00e6,inactive
CG12106,DRSC17805,1.18e5,1.05e5,6.82e5,6.78e5,inactive
CG9010,DRSC07320,1.18e6,1.08e6,2.32e6,1.73e6,inactive
CG2641,DRSC15441,81470,65355,1.76e6,1.11e6,inactive

4 of these entries, set out differently:
gene	DRSC id	firefly reporter light, replicate 1	firefly reporter light, replicate 2	Renilla control light, replicate 1	Renilla control light, replicate 2	call
CG8230	DRSC05931	1.12e5	1.94e5	8.36e5	1.13e6	inactive
CG5235	DRSC10494	2.10e5	1.81e5	1.66e6	1.51e6	inactive
Drsl6 (Drosomycin-like 6)	DRSC08161	2.17e5	1.82e5	2.81e6	2.43e6	inactive
CG5577	DRSC10519	28001	16473	3.66e5	1.87e5	inactive

The results go on.
gene,DRSC id,"firefly reporter light, replicate 1","firefly reporter light, replicate 2","Renilla control light, replicate 1","Renilla control light, replicate 2",call
Fum2 (Fumarase 2),DRSC18345,1.94e5,2.04e5,1.35e6,2.03e6,inactive
Fum2 (Fumarase 2),DRSC25313,7.14e5,9.05e5,1.25e6,1.30e6,inactive
GstD7 (Glutathione S transferase D7),DRSC16688,7.07e5,6.05e5,2.20e6,1.50e6,inactive
GstD7 (Glutathione S transferase D7),DRSC29907,4.39e5,2.79e5,1.21e6,8.46e5,inactive
Mur18B (Mucin related 18B),DRSC20063,1.58e5,1.14e5,6.71e5,6.09e5,inactive
Mur18B (Mucin related 18B),DRSC28610,3.89e5,2.98e5,1.51e6,1.31e6,inactive
Mur18B (Mucin related 18B),DRSC39003,9.25e5,8.97e5,2.38e6,2.54e6,inactive
CG32806,DRSC21699,8.91e5,8.73e5,2.66e6,2.35e6,inactive
CG32806,DRSC28307,3.53e5,5.16e5,8.32e5,1.44e6,inactive
CG32806,DRSC39095,7.81e5,3.81e5,1.65e6,1.11e6,inactive
ana (anachronism),DRSC07579,1.36e6,1.04e6,1.16e6,9.30e5,inactive
ana (anachronism),DRSC24236,6.83e5,7.50e5,7.49e5,7.13e5,inactive
ana (anachronism),DRSC38967,8.41e5,7.12e5,2.34e6,1.83e6,inactive
CG8774,DRSC16445,20608,52784,2.00e5,2.75e5,inactive
CG3760,DRSC04415,3.90e5,4.90e5,3.83e6,4.17e6,inactive
CG8187,DRSC07099,6.71e5,1.04e6,2.06e6,2.33e6,inactive
Cyp6a13 (Cytochrome P450 6a13),DRSC07375,5.59e5,6.26e5,1.13e6,1.31e6,inactive
baz (bazooka),DRSC20309,5.78e5,4.35e5,2.26e6,2.35e6,inactive
baz (bazooka),DRSC25558,7.84e5,5.98e5,9.50e5,8.69e5,inactive
Kpc2 (Kip1 ubiquitination-promoting complex subunit 2),DRSC07635,95706,1.09e5,9.08e5,1.47e6,inactive
Cpr97Ea (Cuticular protein 97Ea),DRSC15974,1.02e5,1.70e5,1.26e6,2.45e6,inactive
Cpr97Ea (Cuticular protein 97Ea),DRSC26548,2.52e5,2.89e5,3.27e5,3.82e5,inactive
CG14455,DRSC11712,1.61e5,1.56e5,1.43e6,1.90e6,inactive
CG14455,DRSC29992,3.10e5,2.38e5,1.21e6,1.29e6,inactive
WRNexo (WRN exonuclease),DRSC16278,1.33e5,1.18e5,1.22e6,1.11e6,inactive
CG6836,DRSC10722,27204,30899,6.43e5,4.13e5,inactive
CG6836,DRSC26906,3.89e5,3.29e5,5.00e5,4.74e5,inactive
CG42268,DRSC10171,1.92e5,1.70e5,3.32e6,2.16e6,inactive
CG42268,DRSC10702,1.85e5,1.95e5,2.28e6,2.10e6,inactive
CG42268,DRSC21797,3.71e5,3.66e5,2.01e6,2.47e6,inactive
CG42268,DRSC25299,5.20e5,3.96e5,5.18e5,5.28e5,inactive
CG42268,DRSC29387,4.48e5,6.58e5,1.10e6,1.10e6,inactive
FoxK (Forkhead box K),DRSC24971,4.51e5,3.15e5,3.55e5,4.31e5,inactive
"Polr2L (RNA polymerase II, I and III subunit L)",DRSC14630,2.48e5,2.83e5,1.57e6,1.57e6,inactive
Cul1 (Cullin 1),DRSC07645,1.13e6,1.19e6,1.62e6,1.54e6,inactive
Cul1 (Cullin 1),DRSC26395,2.37e5,2.96e5,5.62e5,5.89e5,inactive
DAAM (Dishevelled Associated Activator of Morphogenesis),DRSC18479,3.81e5,4.41e5,2.20e6,3.11e6,inactive
bcd + CR14578,DRSC20984,2.11e5,1.93e5,4.85e5,4.61e5,inactive
spaw (spacewatch),DRSC06824,1.76e5,2.84e5,1.49e6,1.27e6,inactive
EcR (Ecdysone receptor),DRSC04906,3.77e5,3.74e5,1.91e6,1.50e6,inactive
EcR (Ecdysone receptor),DRSC04910,1.48e6,1.20e6,2.31e6,2.49e6,inactive
EcR (Ecdysone receptor),DRSC39130,1.75e6,1.19e6,1.67e6,1.26e6,inactive
Kdm2 (Lysine demethylase 2),DRSC14286,62533,1.08e5,3.41e5,6.21e5,inactive
CG14826,DRSC10197,1.24e5,1.74e5,1.46e6,1.80e6,inactive
CG10477,DRSC09732,1.25e5,1.16e5,1.36e6,1.38e6,inactive
CG10477,DRSC23989,1.30e6,1.45e6,1.32e6,1.02e6,inactive
twf (twinfilin),DRSC15466,33747,45517,2.90e5,3.06e5,active
twf (twinfilin),DRSC36927,,,,,inactive
Cpr62Bb (Cuticular protein 62Bb),DRSC08404,1.19e5,1.57e5,1.74e6,2.13e6,inactive
Cpr62Bb (Cuticular protein 62Bb),DRSC27624,2.50e5,2.35e5,6.90e5,8.79e5,inactive
